This is one part of the list. Further columns of the screen follow, without active or inactive calls. Compounds called inactive in the main read-out are mostly missing here. Potencies come from curve fits of mixed quality, noted in brackets.
Assay: qHTS Assay to Find Inhibitors of Chronic Active B-Cell Receptor Signaling
Settings: ABC-DLBCL IkBa-CBG/CBR reporter, luminescence ratio (green luciferase fused to IkBa over red control in TMD8 lymphoma cells), 4 h
Method in brief: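 Doxycycline induced both beetle luciferases in TMD8 lymphoma cells; IKK-driven degradation limits the IkappaBalpha-fused green signal, while red luminescence normalises for cell number and nonspecific effects. Compounds tested up to 46 uM, 4 hrs.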

[1] = measured here: CBR red luminescence, cell number
[2] = measured here: IkBa-CBG green luminescence

CC#CC#Cc1cccc(=O)o1
AC50 [1]: 15.8 µM [falling, partial curve, poor fit]

NC(=O)CN(N=Nc1cccc([N+](=O)[O-])c1)c1cccc([N+](=O)[O-])c1
AC50 [1]: 20 µM [rising, partial curve, poor fit]

CC1CN(C(=S)SCC(=O)c2ccccc2)CC(C)O1 (centres undefined)
AC50 [1]: 0.231 µM [rising, full curve, poor fit]

N#Cc1c(-c2ccccc2)ccnc1Oc1ccccc1
AC50 [1]: 7.94 µM [rising, partial curve, poor fit]

COc1ccc(Cl)cc1NC(=O)CSc1nc2sccc2c(=O)[nH]1
AC50 [1]: 35.5 µM [falling, single point]

O=c1c([N+](=O)[O-])c(NC2CCCCC2)c2ccccc2n1-c1ccccc1
AC50 [1]: 6.51 µM [rising, partial curve]

CCOC(=O)c1cc(-c2ccccc2)sc1NC(=O)c1cc(OC)c(OC)c(OC)c1
AC50 [1]: 25.9 µM [rising, single point]

O=C(/C=C/c1ccco1)Nc1cc(Cl)ccc1C(=O)O
AC50 [1]: 5.17 µM [falling, partial curve]

CSc1nc2ccc(S(=O)(=O)N3CCOCC3)cc2s1
AC50 [1]: 6.51 µM [rising, single point]

Cc1cc(=O)n2c(C(=O)Nc3ccc(C)c(C)c3)c(C(=O)Nc3ccccc3)sc2n1
AC50 [1]: 7.94 µM [falling, partial curve]

CCc1ccc(NC(=O)c2ccc(Cn3cc([N+](=O)[O-])cn3)cc2)cc1
AC50 [1]: 29.1 µM [rising, single point]

COc1cccc(NC(=S)NNC(=O)c2ccccc2OC(F)F)c1
AC50 [1]: 17.8 µM [falling, partial curve, poor fit]

c1cc(Nc2ncnc3sccc23)cc(-c2nnc3n2CCCCC3)c1
AC50 [1]: 3.16 µM [falling, single point]

Fc1ccc(CCN2CCN=C2Nc2ccccc2)cc1
AC50 [1]: 6.51 µM [rising, single point]

CCCCCCCCC#Cc1nc(C)ccc1OC
AC50 [1]: 29.1 µM [rising, partial curve, poor fit]

c1ccc(CCNc2ccccc2)cc1
AC50 [1]: 2.82 µM [rising, full curve]

CCOc1ccc(NS(=O)(=O)c2ccc3[nH]c(=O)oc3c2)cc1
AC50 [1]: 6.51 µM [falling, full curve]

COc1ccc2nc(NC(=O)c3ccc(F)cc3)sc2c1
AC50 [1]: 3.98 µM [falling, full curve, poor fit]

COc1cc(OC)nc(-n2ncc(OC)c(Br)c2=O)n1
AC50 [1]: 32.6 µM [rising, partial curve, poor fit]

COc1ccc(NC(=O)c2cc3ccccc3cc2O)cc1
AC50 [1]: 10 µM [falling, partial curve]

CC(Oc1ccc(Br)cc1Br)C(=O)Nc1cccnc1Cl (centres undefined)
AC50 [1]: 1.58 µM [rising, full curve, poor fit]

COc1ccc(NC(=O)/C(C#N)=C/c2c(C)nn(-c3ccc(F)cc3)c2Cl)cc1OC
AC50 [2]: 23.1 µM [falling, single point]

N/C(=N\OC(=O)CCC1CCCC1)c1cccc([N+](=O)[O-])c1
AC50 [1]: 7.31 µM [rising, partial curve]

Cc1ccc(-n2c(=O)[nH]c3c(oc4ccccc43)c2=O)cc1
AC50 [1]: 1.26 µM [rising, partial curve, poor fit]

COc1cc(C(=O)O/N=C(\N)c2ccc([N+](=O)[O-])cc2)cc(OC)c1OC
AC50 [1]: 4.11 µM [rising, full curve]
AC50 [2]: 4.11 µM [falling, partial curve, poor fit]

O=C(O)c1cc2ccc3ccccc3c2[nH]1
AC50 [1]: 5.17 µM [rising, partial curve, poor fit]

O=C1OC(c2ccc(O)cc2)(c2ccc(O)cc2)c2ccccc21
AC50 [1]: 14.1 µM [falling, single point]

c1ccc(OCCN2CCN(Cc3nc(-c4ccc5c(c4)OCO5)no3)CC2)cc1
AC50 [1]: 11.2 µM [rising, single point]

COc1ccc(CNC(=O)c2c(N)n(CCCN3CCOCC3)c3nc4ccccc4nc23)cc1
AC50 [1]: 32.6 µM [falling, single point]

COC(=O)c1cnc(Nc2cccc(C(F)(F)F)c2)c([N+](=O)[O-])c1
AC50 [1]: 2.51 µM [rising, partial curve, poor fit]

CCOC(=O)Cc1csc(NC(=O)Cc2ccccc2)n1
AC50 [1]: 14.1 µM [rising, single point]

Cc1ccc(-c2cc(C(=O)NCC3CCCO3)no2)cc1 (centres undefined)
AC50 [1]: 5.8 µM [falling, partial curve]

CCOC(=O)c1c(C)[nH]c(C)c1S(=O)(=O)NCCN1CCN(c2cc(Cl)ccc2C)CC1
AC50 [1]: 35.5 µM [falling, single point]
